Source: article PMC7985710
No constants are given. Whether binding was seen depends on the method and setting. Some binding calls cover weakened binding; strength is not graded here. Blank lines part the entries; values can stand above or below the binder they belong to.

Legend:
Assay in all cases: PFOA-PAGE with immunoblot; sonicated lysates (10 μg) of transfected COS-7 cells separated in 5% perfluorooctanoic acid under nonreducing conditions; SR-BI detected with a C-terminal antibody
[1] = molecular target: WT scavenger receptor class B type I (human SR-BI) (human) (UniProt Q8WTV0)
[2] = molecular target: R174K-SR-BI (human) (UniProt Q8WTV0)
[3] = molecular target: R174D-SR-BI (human) (UniProt Q8WTV0)
[4] = molecular target: D185R-SR-BI (human) (UniProt Q8WTV0)
[5] = molecular target: R174C-SR-BI (human variant of scavenger receptor class B type I) (human) (UniProt Q8WTV0)
[6] = molecular target: R174D-SR-BI/D185R-SR-BI (human) (UniProt Q8WTV0)

binding [1]: binds
B1: WT scavenger receptor class B type I (human SR-BI) (receptor, UniProt Q8WTV0-2 1-509)
chain: MGCSAKARWAAGALGVAGLLCAVLGAVMIVMVPSLIKQQVLKNVRIDPSSLSFNMWKEIPIPFYLSVYFFDVMNPSEILKGEKPQVRERGPYVYREFRHKSNITFNNNDTVSFLEYRTFQFQPSKSHGSESDYIVMPNILVLGAAVMMENKPMTLKLIMTLAFTTLGERAFMNRTVGEIMWGYKDPLVNLINKYFPGMFPFKDKFGLFAELNNSDSGLFTVFTGVQNISRIHLVDKWNGLSKVDFWHSDQCNMINGTSGQMWPPFMTPESSLEFYSPEACRSMKLMYKESGVFEGIPTYRFVAPKTLFANGSIYPPNEGFCPCLESGIQNVSTCRFSAPLFLSHPHFLNADPVLAEAVTGLHPNQEAHSLFLDIHPVTGIPMNCSVKLQLSLYMKSVAGIGQTGKIEPVVLPLLWFAESGAMEGETLHTFYTQLVLMPKVMHYAQYVLLALGCVLLLVPVICQIRSQEKCYLFWSSSKKGSKDKEAIQAYSESLMTSAPKGSVLQEAKL

binding [2]: binds
B2: R174K-SR-BI (receptor, UniProt Q8WTV0-2 1-509)
chain: MGCSAKARWAAGALGVAGLLCAVLGAVMIVMVPSLIKQQVLKNVRIDPSSLSFNMWKEIPIPFYLSVYFFDVMNPSEILKGEKPQVRERGPYVYREFRHKSNITFNNNDTVSFLEYRTFQFQPSKSHGSESDYIVMPNILVLGAAVMMENKPMTLKLIMTLAFTTLGERAFMNKTVGEIMWGYKDPLVNLINKYFPGMFPFKDKFGLFAELNNSDSGLFTVFTGVQNISRIHLVDKWNGLSKVDFWHSDQCNMINGTSGQMWPPFMTPESSLEFYSPEACRSMKLMYKESGVFEGIPTYRFVAPKTLFANGSIYPPNEGFCPCLESGIQNVSTCRFSAPLFLSHPHFLNADPVLAEAVTGLHPNQEAHSLFLDIHPVTGIPMNCSVKLQLSLYMKSVAGIGQTGKIEPVVLPLLWFAESGAMEGETLHTFYTQLVLMPKVMHYAQYVLLALGCVLLLVPVICQIRSQEKCYLFWSSSKKGSKDKEAIQAYSESLMTSAPKGSVLQEAKL

binding [3]: binds
B3: R174D-SR-BI (receptor, UniProt Q8WTV0-2 1-509)
chain: MGCSAKARWAAGALGVAGLLCAVLGAVMIVMVPSLIKQQVLKNVRIDPSSLSFNMWKEIPIPFYLSVYFFDVMNPSEILKGEKPQVRERGPYVYREFRHKSNITFNNNDTVSFLEYRTFQFQPSKSHGSESDYIVMPNILVLGAAVMMENKPMTLKLIMTLAFTTLGERAFMNDTVGEIMWGYKDPLVNLINKYFPGMFPFKDKFGLFAELNNSDSGLFTVFTGVQNISRIHLVDKWNGLSKVDFWHSDQCNMINGTSGQMWPPFMTPESSLEFYSPEACRSMKLMYKESGVFEGIPTYRFVAPKTLFANGSIYPPNEGFCPCLESGIQNVSTCRFSAPLFLSHPHFLNADPVLAEAVTGLHPNQEAHSLFLDIHPVTGIPMNCSVKLQLSLYMKSVAGIGQTGKIEPVVLPLLWFAESGAMEGETLHTFYTQLVLMPKVMHYAQYVLLALGCVLLLVPVICQIRSQEKCYLFWSSSKKGSKDKEAIQAYSESLMTSAPKGSVLQEAKL

binding [4]: binds
B4: D185R-SR-BI (receptor, UniProt Q8WTV0-2 1-509)
chain: MGCSAKARWAAGALGVAGLLCAVLGAVMIVMVPSLIKQQVLKNVRIDPSSLSFNMWKEIPIPFYLSVYFFDVMNPSEILKGEKPQVRERGPYVYREFRHKSNITFNNNDTVSFLEYRTFQFQPSKSHGSESDYIVMPNILVLGAAVMMENKPMTLKLIMTLAFTTLGERAFMNRTVGEIMWGYKRPLVNLINKYFPGMFPFKDKFGLFAELNNSDSGLFTVFTGVQNISRIHLVDKWNGLSKVDFWHSDQCNMINGTSGQMWPPFMTPESSLEFYSPEACRSMKLMYKESGVFEGIPTYRFVAPKTLFANGSIYPPNEGFCPCLESGIQNVSTCRFSAPLFLSHPHFLNADPVLAEAVTGLHPNQEAHSLFLDIHPVTGIPMNCSVKLQLSLYMKSVAGIGQTGKIEPVVLPLLWFAESGAMEGETLHTFYTQLVLMPKVMHYAQYVLLALGCVLLLVPVICQIRSQEKCYLFWSSSKKGSKDKEAIQAYSESLMTSAPKGSVLQEAKL

binding [5]: binds
B5: R174C-SR-BI (human variant of scavenger receptor class B type I) (receptor, UniProt Q8WTV0-2 1-509)
chain: MGCSAKARWAAGALGVAGLLCAVLGAVMIVMVPSLIKQQVLKNVRIDPSSLSFNMWKEIPIPFYLSVYFFDVMNPSEILKGEKPQVRERGPYVYREFRHKSNITFNNNDTVSFLEYRTFQFQPSKSHGSESDYIVMPNILVLGAAVMMENKPMTLKLIMTLAFTTLGERAFMNCTVGEIMWGYKDPLVNLINKYFPGMFPFKDKFGLFAELNNSDSGLFTVFTGVQNISRIHLVDKWNGLSKVDFWHSDQCNMINGTSGQMWPPFMTPESSLEFYSPEACRSMKLMYKESGVFEGIPTYRFVAPKTLFANGSIYPPNEGFCPCLESGIQNVSTCRFSAPLFLSHPHFLNADPVLAEAVTGLHPNQEAHSLFLDIHPVTGIPMNCSVKLQLSLYMKSVAGIGQTGKIEPVVLPLLWFAESGAMEGETLHTFYTQLVLMPKVMHYAQYVLLALGCVLLLVPVICQIRSQEKCYLFWSSSKKGSKDKEAIQAYSESLMTSAPKGSVLQEAKL

binding [6]: binds
B6: R174D-SR-BI/D185R-SR-BI (receptor, UniProt Q8WTV0-2 1-509)
chain: MGCSAKARWAAGALGVAGLLCAVLGAVMIVMVPSLIKQQVLKNVRIDPSSLSFNMWKEIPIPFYLSVYFFDVMNPSEILKGEKPQVRERGPYVYREFRHKSNITFNNNDTVSFLEYRTFQFQPSKSHGSESDYIVMPNILVLGAAVMMENKPMTLKLIMTLAFTTLGERAFMNDTVGEIMWGYKRPLVNLINKYFPGMFPFKDKFGLFAELNNSDSGLFTVFTGVQNISRIHLVDKWNGLSKVDFWHSDQCNMINGTSGQMWPPFMTPESSLEFYSPEACRSMKLMYKESGVFEGIPTYRFVAPKTLFANGSIYPPNEGFCPCLESGIQNVSTCRFSAPLFLSHPHFLNADPVLAEAVTGLHPNQEAHSLFLDIHPVTGIPMNCSVKLQLSLYMKSVAGIGQTGKIEPVVLPLLWFAESGAMEGETLHTFYTQLVLMPKVMHYAQYVLLALGCVLLLVPVICQIRSQEKCYLFWSSSKKGSKDKEAIQAYSESLMTSAPKGSVLQEAKL
